Experimental findings from PMC7819943, “Rice protein-binding microarrays: a tool to detect cis-acting elements near promoter regions in rice” are described below.

The list shows a part of the results.

The target in the experiment is T1, OsSMF1 (Oryza sativa, UniProt Q6ZLB0 1-436).
T1 sequence: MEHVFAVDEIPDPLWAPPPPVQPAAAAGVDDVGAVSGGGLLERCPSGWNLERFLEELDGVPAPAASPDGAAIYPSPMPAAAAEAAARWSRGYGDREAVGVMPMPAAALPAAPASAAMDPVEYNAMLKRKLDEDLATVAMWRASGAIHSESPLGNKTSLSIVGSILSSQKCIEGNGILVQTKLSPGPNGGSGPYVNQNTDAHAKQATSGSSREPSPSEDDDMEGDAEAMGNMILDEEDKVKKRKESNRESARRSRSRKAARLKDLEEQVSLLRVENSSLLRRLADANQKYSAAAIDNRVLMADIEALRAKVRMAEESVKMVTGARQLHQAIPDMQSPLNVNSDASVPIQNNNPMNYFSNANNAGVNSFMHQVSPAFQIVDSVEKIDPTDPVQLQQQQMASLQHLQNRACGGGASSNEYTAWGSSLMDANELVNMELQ
The experiment is described as follows: protein-binding microarray (RPBM); PBS, 2% BSA, 51.3 ng/ul salmon testes DNA, 50 uM zinc acetate, 200 nM TF, 25 C, 1 h; high values mean tight binding. Particulars: protein: recombinant; tags: N-terminal polyhistidine and DsRed monomer fusion (pET32a); chain copies: 2; label: CyDye5-dUTP incorporated in the synthesized complementary strand; 3' TTTTT single-stranded linker to array surface; dsDNA, one strand shown. The procedure, abridged:
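An Axon 4000B scanner gave the binding signal as per-feature fluorescence intensity in arbitrary units. This followed washing of a custom Agilent array that had been incubated for 1 h at 25 °C with 200 nM protein in PBS, 2% BSA, salmon testes DNA and 50 µM zinc acetate. The proteins were transcription factors fused at the N-terminus to polyhistidine and DsRed, expressed in E. coli BL21-CodonPlus and purified on Ni–NTA.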
Take “GCCACTGATTGTGGAGGGTGTGGATTTGGATTTACGCATGCGGAGTCACCTAGTGCAG”: the binding signal was 3460 fluorescence intensity (a.u.).

As for “CAGCAGCAGCAGCAAGGCACCTACTCCTAATCGTCTCATGCGGAGTCACCTAGTGCAG”, the binding signal was 3300 fluorescence intensity (a.u.).

Turning to “CCTCCTCCTCGCCGTGGGCGGGGCGGATGGCGGCGGCGTTCGGAGTCACCTAGTGCAG”, the binding signal was 3770 fluorescence intensity (a.u.).

On to “GAATTTCCCCTCCTTTTCCATGTCACCCGGTCCGCCCATTCGGAGTCACCTAGTGCAG”, for which the binding signal was 3180 fluorescence intensity (a.u.).

With “CATCATGTACAAGGCCTTGAGTAGATTGGGCCTCCAGCTACGGAGTCACCTAGTGCAG”, the binding signal is 12000 fluorescence intensity (a.u.).

With “GGATGTGAAATATGAGCTGGCTGTGAATGTGTCGTTGTGTCGGAGTCACCTAGTGCAG”, the binding signal was 6880 fluorescence intensity (a.u.).

With “TTGTTTAAAATATTAAGTCAATAATGTCTTGTGCTTTCAACGGAGTCACCTAGTGCAG”, the binding signal is 3340 fluorescence intensity (a.u.).

For the sequence “CGAAATTTGACGCCATGGAAGCTAGCGTGCATGTAGATCACGGAGTCACCTAGTGCAG”, the binding signal was 3520 fluorescence intensity (a.u.).

In the case of “CTGAAAAGTTGTGTGTGTATGACATGTTGATGTGATGGAACGGAGTCACCTAGTGCAG”, the binding signal is 5180 fluorescence intensity (a.u.).

Turning to “GTCAGTGGAAGAGAGAAGGTTATAGCAAAGCAGCAGCAACCGGAGTCACCTAGTGCAG”, the binding signal was 29600 fluorescence intensity (a.u.).

For “GTGAAATTAAATGGGAAATGGTTATGATTGGTTGAGACGACGGAGTCACCTAGTGCAG”, the binding signal was 3470 fluorescence intensity (a.u.).

On to “TGTTGCTGTTGTCCGGTGTACATCCACAACTTCTTTGCCTCGGAGTCACCTAGTGCAG”, for which the binding signal is 3420 fluorescence intensity (a.u.).

For the sequence “CTCTAAGGCTATGTTTGGCACACCCTTCCCATCCCCTTTCCGGAGTCACCTAGTGCAG”, the binding signal was 3690 fluorescence intensity (a.u.).

In the case of “TCGGCAGAGCTTGCCAAGACGACCTACGTCACCACCTTGCCGGAGTCACCTAGTGCAG”, the binding signal is 6790 fluorescence intensity (a.u.).

Consider “TCCCCAATGCTCAATGACACCATCATCCCCGCCGGGATTTCGGAGTCACCTAGTGCAG”, for which the binding signal was 4850 fluorescence intensity (a.u.).

For “ATTCTTCTAATATATTGACGTGTAATTCTTCTGCGCATTCCGGAGTCACCTAGTGCAG”, the binding signal was 12600 fluorescence intensity (a.u.).

On to “CACCACTATCTCAACCGGATCGAGTCAGAGGCCAGAAGGGCGGAGTCACCTAGTGCAG”, for which the binding signal was 5070 fluorescence intensity (a.u.).

Turning to “AAAATTTGTTGACAAATAGTCCCTACGTGGTCTGTGTTACCGGAGTCACCTAGTGCAG”, the binding signal was 3220 fluorescence intensity (a.u.).

For the sequence “AAGAAAACAACACTAAGTATATACGTGTATCTCAACCCACCGGAGTCACCTAGTGCAG”, the binding signal is 4940 fluorescence intensity (a.u.).

Regarding “CTCACATACATCGAACACACACACACAACGTGTACAGCACCGGAGTCACCTAGTGCAG”, the binding signal is 3690 fluorescence intensity (a.u.).

Consider “CGCATACGATATCTGTGATAACCGCACGGATACTAAACCTCGGAGTCACCTAGTGCAG”, for which the binding signal was 3820 fluorescence intensity (a.u.).

For “TTGACATTACCTGACATCAGTGTGTCACCATCTAATTTTACGGAGTCACCTAGTGCAG”, the binding signal is 4980 fluorescence intensity (a.u.).

As to “GATAGCTGCAAAAGCTCAATTATACACGTAGGAGTAGTTCCGGAGTCACCTAGTGCAG”, the binding signal is 3410 fluorescence intensity (a.u.).

Take “AGATACTCTAAAAGTACGGTGAGGGTAGGATGATGTGAAGCGGAGTCACCTAGTGCAG”: the binding signal is 32200 fluorescence intensity (a.u.).

As to “TAATTCCACCCATGTACGGATTTGGATCTAATTATGTTAACGGAGTCACCTAGTGCAG”, the binding signal was 4910 fluorescence intensity (a.u.).

Turning to “GACACTCCAGCCCAGCAGGCTTACCTGTCAGGAGCCCACTCGGAGTCACCTAGTGCAG”, the binding signal was 4520 fluorescence intensity (a.u.).

Turning to “TAATTGCAATTAACCCCACGTCAGCGATCCGCCTCTAAACCGGAGTCACCTAGTGCAG”, the binding signal was 22300 fluorescence intensity (a.u.).

For the sequence “CATTTAAGTGACATGTAAACAACGAGGGAACTTAACATCCCGGAGTCACCTAGTGCAG”, the binding signal is 3930 fluorescence intensity (a.u.).

Turning to “CTCCACCGGAGTTGACGTACGAGGATGATGATGATGATGACGGAGTCACCTAGTGCAG”, the binding signal is 4720 fluorescence intensity (a.u.).

For the sequence “AGTGGGGCCTACCTGTCAGTGACTCCACCCCTATATTCTCCGGAGTCACCTAGTGCAG”, the binding signal is 4740 fluorescence intensity (a.u.).

Turning to “ATTAGAATCGAGAATTGTGTGTTGGCATGTATCCACATGTCGGAGTCACCTAGTGCAG”, the binding signal was 4450 fluorescence intensity (a.u.).

With “TTCTGCACCTTCATTTATTTGTAGGTTTACGACAGCCTCTCGGAGTCACCTAGTGCAG”, the binding signal was 3720 fluorescence intensity (a.u.).

As for “TGTTGTTATGGAAACATACGTGCGTGCATGATTAGTTATTCGGAGTCACCTAGTGCAG”, the binding signal was 3180 fluorescence intensity (a.u.).

For “GCAGCCGACCACGCCACCTTGCTTTGCGCTGCTACCTCCACGGAGTCACCTAGTGCAG”, the binding signal was 5040 fluorescence intensity (a.u.).

Regarding “TCATCATCATCATTGGACAAATCCAACGTGCCTCATCACTCGGAGTCACCTAGTGCAG”, the binding signal is 4440 fluorescence intensity (a.u.).

With “TTTCACGAAACCCAGTGATCCTGTCAGGTATCCTATGTACCGGAGTCACCTAGTGCAG”, the binding signal was 3760 fluorescence intensity (a.u.).

On to “CCTCCACCTGTGCCCTCCCGCGGTCAGCAACCGTATCGCTCGGAGTCACCTAGTGCAG”, for which the binding signal is 3950 fluorescence intensity (a.u.).

On to “CTCCTGGAGGGCGAAGACGTGGAGGCGGTGGTGGTATTCGCGGAGTCACCTAGTGCAG”, for which the binding signal is 3600 fluorescence intensity (a.u.).

For the sequence “CGCGCGGATCTGTCCTCTTTGACCTGGATGACGTGGGATCCGGAGTCACCTAGTGCAG”, the binding signal was 15400 fluorescence intensity (a.u.).

On to “AAATCTCAACCCGTACACGTACGCGTCTGCGAAATTAATCCGGAGTCACCTAGTGCAG”, for which the binding signal was 4440 fluorescence intensity (a.u.).

In the case of “CAGCGCCTGTTGCTGATCCCATCCCATTATAACCTTAGTTCGGAGTCACCTAGTGCAG”, the binding signal was 14700 fluorescence intensity (a.u.).

Take “TCTCCAGTCCTTGTTCGCCACGACACGTCTTACTTGACTGCGGAGTCACCTAGTGCAG”: the binding signal was 6720 fluorescence intensity (a.u.).
